Values quoted from earlier work as cited in US20220225651A1, “STEVIOL GLYCOSIDE AND FERULIC ACID FORMULATIONS FOR FOOD AND BEVERAGES” (Sweegen, Inc., priority 2021, published 2022).

Structure (SMILES) | concentration above which bitterness is perceptible (perceptible bitterness) | after-taste (taste quality)
C=C1C[C@@]23CC[C@H]4[C@@](C)(CCC[C@@]4(C)C(=O)O[C@@H]4O[C@H](CO)[C@@H](O)[C@H](O)[C@H]4O)[C@@H]2CC[C@]1(O[C@@H]1O[C@H](CO)[C@@H](O)[C@H](O[C@@H]2O[C@H](CO)[C@@H](O)[C@H](O)[C@H]2O)[C@H]1O[C@@H]1O[C@H](CO)[C@@H](O)[C@H](O)[C@H]1O)C3 [Reb A, rebaudioside A] | above 200 ppm | –
C=C1C[C@@]23CC[C@H]4[C@@](C)(CCC[C@@]4(C)C(=O)O[C@@H]4O[C@H](CO)[C@@H](O)[C@H](O)[C@H]4O)[C@@H]2CC[C@]1(O[C@@H]1O[C@H](CO)[C@@H](O)[C@H](O)[C@H]1O[C@@H]1O[C@H](CO)[C@@H](O)[C@H](O)[C@H]1O)C3 [stevioside] | – | bitter after-taste
